The values below come from article PMC12229603.

The test has as its target GFP-tagged NTSR1 (human) (UniProt P30989). As to the kind of experiment: co-IP; lysates of stable HEK-293 cells co-overexpressing GFP-NTSR1/RFP-NTSR3, treated with or without NTS (100 nM) for 15 min; GFP pulled down (ChromoTek GFP-Trap agarose / anti-GFP), western blot with anti-GFP and anti-RFP antibodies.

No constants are given. Whether binding was seen depends on the method and setting. In cells and extracts the contact can be indirect. Some binding calls cover weakened binding; strength is not graded here.

In the case of “RFP-tagged NTSR3 (from UniProt Q99523 78-831) (receptor)”, the binding entry is recorded as “binds”.
